Drawing on the supplement of paper PMC10849652, this text covers log2 fold change for twelve targets.

Protein sequences, listed by entry. Tags and fused reporters are not part of them. Lines headed by an entry give the natural chain unless they say otherwise; changes in a name come on top.
UniProt Q8NCH0: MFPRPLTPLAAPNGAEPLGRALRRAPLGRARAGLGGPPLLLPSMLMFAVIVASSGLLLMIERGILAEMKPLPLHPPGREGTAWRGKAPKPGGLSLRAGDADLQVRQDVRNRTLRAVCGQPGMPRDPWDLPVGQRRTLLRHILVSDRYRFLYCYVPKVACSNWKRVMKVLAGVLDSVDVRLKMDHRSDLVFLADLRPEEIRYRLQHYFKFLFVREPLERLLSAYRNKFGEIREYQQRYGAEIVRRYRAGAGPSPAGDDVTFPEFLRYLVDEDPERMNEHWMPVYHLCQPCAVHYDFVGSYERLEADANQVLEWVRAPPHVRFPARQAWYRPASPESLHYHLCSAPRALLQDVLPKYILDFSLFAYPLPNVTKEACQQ
UniProt P51788: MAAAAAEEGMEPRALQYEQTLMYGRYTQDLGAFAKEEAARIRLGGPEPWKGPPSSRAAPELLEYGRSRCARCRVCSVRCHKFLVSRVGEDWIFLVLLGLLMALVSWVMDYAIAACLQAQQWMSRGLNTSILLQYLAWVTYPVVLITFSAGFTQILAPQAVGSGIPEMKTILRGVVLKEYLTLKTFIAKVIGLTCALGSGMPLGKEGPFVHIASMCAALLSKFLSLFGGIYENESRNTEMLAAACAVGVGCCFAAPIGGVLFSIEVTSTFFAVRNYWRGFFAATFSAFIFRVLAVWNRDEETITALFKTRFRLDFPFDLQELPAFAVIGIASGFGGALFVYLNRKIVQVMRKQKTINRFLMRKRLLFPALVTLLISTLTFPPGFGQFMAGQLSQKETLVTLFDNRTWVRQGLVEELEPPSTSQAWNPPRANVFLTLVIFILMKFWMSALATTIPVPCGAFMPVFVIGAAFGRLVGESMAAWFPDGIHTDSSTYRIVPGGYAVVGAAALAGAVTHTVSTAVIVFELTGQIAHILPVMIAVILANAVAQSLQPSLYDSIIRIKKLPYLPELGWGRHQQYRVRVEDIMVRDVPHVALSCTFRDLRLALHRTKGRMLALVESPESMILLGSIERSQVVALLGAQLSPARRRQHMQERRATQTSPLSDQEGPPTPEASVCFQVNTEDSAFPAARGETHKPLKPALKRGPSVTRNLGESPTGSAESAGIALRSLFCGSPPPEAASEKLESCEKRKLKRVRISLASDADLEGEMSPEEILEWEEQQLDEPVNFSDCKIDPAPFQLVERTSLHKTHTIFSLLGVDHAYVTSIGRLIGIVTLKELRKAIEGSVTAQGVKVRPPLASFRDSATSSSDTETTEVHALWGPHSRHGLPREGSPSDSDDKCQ
UniProt P56749: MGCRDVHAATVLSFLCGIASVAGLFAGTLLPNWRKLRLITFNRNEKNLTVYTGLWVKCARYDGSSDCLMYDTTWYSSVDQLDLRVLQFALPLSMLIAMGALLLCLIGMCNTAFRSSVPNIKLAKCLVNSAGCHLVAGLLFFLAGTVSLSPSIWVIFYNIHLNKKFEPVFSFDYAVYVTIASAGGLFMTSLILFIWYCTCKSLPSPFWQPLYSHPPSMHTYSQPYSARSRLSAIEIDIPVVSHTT
UniProt Q9BW66: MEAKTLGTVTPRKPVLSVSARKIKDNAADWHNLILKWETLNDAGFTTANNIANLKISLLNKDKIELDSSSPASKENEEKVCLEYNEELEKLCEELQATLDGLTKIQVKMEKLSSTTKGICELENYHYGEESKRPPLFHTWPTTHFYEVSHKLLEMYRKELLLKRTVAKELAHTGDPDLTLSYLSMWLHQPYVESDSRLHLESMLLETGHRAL
UniProt P56277: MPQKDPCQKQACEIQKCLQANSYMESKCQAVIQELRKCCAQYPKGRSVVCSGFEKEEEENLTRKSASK
UniProt P49759: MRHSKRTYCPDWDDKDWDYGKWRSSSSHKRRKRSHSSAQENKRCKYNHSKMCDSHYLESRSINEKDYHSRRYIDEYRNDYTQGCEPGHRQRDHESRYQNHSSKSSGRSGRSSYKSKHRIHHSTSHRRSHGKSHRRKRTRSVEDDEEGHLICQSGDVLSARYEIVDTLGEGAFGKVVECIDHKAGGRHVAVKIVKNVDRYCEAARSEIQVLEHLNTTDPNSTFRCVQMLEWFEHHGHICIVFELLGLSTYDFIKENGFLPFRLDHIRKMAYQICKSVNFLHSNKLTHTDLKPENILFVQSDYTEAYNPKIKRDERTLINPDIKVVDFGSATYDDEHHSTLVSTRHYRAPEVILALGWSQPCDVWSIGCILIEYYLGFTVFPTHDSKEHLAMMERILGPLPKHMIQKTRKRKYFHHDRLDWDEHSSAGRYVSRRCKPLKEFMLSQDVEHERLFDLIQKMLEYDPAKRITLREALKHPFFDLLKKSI
UniProt Q9BSY4: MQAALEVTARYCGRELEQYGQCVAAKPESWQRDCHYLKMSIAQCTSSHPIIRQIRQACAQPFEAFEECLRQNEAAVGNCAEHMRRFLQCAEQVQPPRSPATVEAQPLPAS
UniProt Q9Y4C5: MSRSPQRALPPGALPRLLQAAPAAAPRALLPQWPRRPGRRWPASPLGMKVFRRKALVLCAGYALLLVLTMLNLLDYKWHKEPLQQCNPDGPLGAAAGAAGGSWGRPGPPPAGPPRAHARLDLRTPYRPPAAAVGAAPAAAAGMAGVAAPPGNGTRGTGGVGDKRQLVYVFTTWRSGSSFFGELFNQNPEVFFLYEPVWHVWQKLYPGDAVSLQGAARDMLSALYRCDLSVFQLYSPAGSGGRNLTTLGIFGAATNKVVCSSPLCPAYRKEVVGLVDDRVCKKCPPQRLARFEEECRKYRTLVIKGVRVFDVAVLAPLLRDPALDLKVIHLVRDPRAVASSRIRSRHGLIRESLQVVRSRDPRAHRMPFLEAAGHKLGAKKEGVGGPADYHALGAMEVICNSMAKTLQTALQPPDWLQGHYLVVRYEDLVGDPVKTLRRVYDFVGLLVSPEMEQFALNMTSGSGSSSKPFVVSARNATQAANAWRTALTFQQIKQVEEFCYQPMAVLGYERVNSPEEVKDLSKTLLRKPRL
UniProt P0CG13, whole entry, looked up: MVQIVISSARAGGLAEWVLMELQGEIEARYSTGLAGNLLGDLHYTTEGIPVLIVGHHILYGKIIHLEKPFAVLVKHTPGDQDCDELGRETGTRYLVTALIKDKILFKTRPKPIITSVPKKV
UniProt Q9NX76: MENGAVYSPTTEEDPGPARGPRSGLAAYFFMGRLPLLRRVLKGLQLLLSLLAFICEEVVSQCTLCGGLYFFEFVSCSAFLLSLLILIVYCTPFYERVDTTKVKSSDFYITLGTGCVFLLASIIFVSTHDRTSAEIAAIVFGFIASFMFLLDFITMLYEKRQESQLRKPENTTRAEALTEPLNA

The list shows a part of the results.

Assay in all cases: log2 fold change, soluble protein after heating vs DMSO (PISA); higher = thermal stabilisation; K562 lysate, 10 uM; active = over 0.2 and 3.5 SD of the protein, either way, in both replicates (recomputed)
Compound in assay [1]: O=C1NC(=O)C(c2cnc3ccccn23)=C1c1cn2c3c(cc(F)cc13)CN(C(=O)N1CCCCC1)CC2
In short, it runs like this: (§1)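 Dounce homogenisation of K562 pellets in PBS pH 7.4 with 1 mM MgCl2 produced a crude extract, used at 1 mg/mL protein. Exposure to 10 μM compound lasted 30 min, and aliquots were then heated for 3 min across 48°C-58°C, pooled and brought to 0.5% NP-40 at 4°C. The supernatant after 21,000xg for 90 min was quantified by TMTpro 16plex LC-MS/MS with channel sums equalised. Duplicate values are given as log-two fold change in thermal stability relative to solvent controls.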

Compound in the next assay: O=C(CCCCCCC(=O)Nc1ccccc1)NO [vorinostat]
In short, it runs like this: as §1

Compound in a further assay: O=C(O)c1ccc2c(c1)nc(Nc1cccc(Cl)c1)c1ccncc12 [silmitasertib]
In a few lines:
as §1

Compound in the next assay: c1cn2cc(-c3ccc4cn[nH]c4c3)nc(Nc3ccc(N4CCOCC4)cc3)c2n1 [entospletinib]
In a few lines:
as §1

Compound in assay [2]: NCC(=O)Nc1ccc(-n2nc(C(F)(F)F)cc2-c2ccc3c(ccc4ccccc43)c2)cc1
In short, it runs like this: as §1

With CHST14 (UniProt Q8NCH0), in assay [1], the log2 fold change is inactive: -0.006.
Take CLCN2 (UniProt P51788): the log2 fold change in the assay with vorinostat was inactive: 0.034; with silmitasertib, inactive: -0.218; in assay [1], inactive: -0.061; with entospletinib, inactive: 0.178.
For CLDN12 (UniProt P56749), in that order: inactive: -0.086, inactive: 0.167, inactive: 0.087 and inactive: 0.05.
As to CINP isoform 3 (UniProt Q9BW66), the log2 fold change in assay [2] is inactive: 0.084; in assay [1] it was inactive: 0.043; with entospletinib it was inactive: 0.009.
On to CHURC1-FNTB (UniProt B4DL54), for which the results for the log2 fold change (in assay [1]; in the assay with entospletinib) were inactive: 0.103 and inactive: -0.048, respectively.
Consider CMC4 (UniProt P56277), for which the log2 fold change is inactive: 0.108 with vorinostat, inactive: 0.085 with silmitasertib and inactive: 0.042 in assay [1].
With CLK1 isoform 3 (UniProt P49759), the log2 fold change in the assay with vorinostat was inactive: 0.119; with silmitasertib it was inactive: 0.045; with entospletinib, inactive: -0.21.
Take CHCHD5 (UniProt Q9BSY4): the log2 fold change was inactive: 0 with vorinostat, inactive: 0.028 with silmitasertib and inactive: 0.017 in assay [1].
Regarding CHMP4A (UniProt H0YIN6), the log2 fold change in assay [1] is inactive: 0.287.
For the target CHST2 (UniProt Q9Y4C5), in assay [1], the log2 fold change is inactive: -0.003.
With CHTF8 (UniProt P0CG13), the log2 fold change is inactive: -0.154 with vorinostat, inactive: 0.153 with silmitasertib, inactive: -0.093 in assay [1] and inactive: -0.047 in the assay with entospletinib.
As for CMTM6 (UniProt Q9NX76), the log2 fold change with vorinostat was inactive: 0.138; with silmitasertib, inactive: -0.149; in assay [1] it was inactive: 0.044; in the assay with entospletinib, inactive: -0.122.
